The nature of the assay: qHTS Assay for Lipid Storage Modulators in Drosophila S3 Cells.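 For cell number change: cells counted by Cell Tracker Red CMTPX staining in the red channel.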 As to conditions: BODIPY lipid droplet fluorescence, 18-24 h; for cell number change: measured here: cell count max response, cells fed with added oleic acid. The method, boiled down: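 Laser-scanning cytometry quantifies lipid droplet accumulation (500–530 nm total intensity; droplet/cell object ratio) in oleic acid-fed (400 uM added) Drosophila S3 cells treated with a concentration series. 20 uM Triacsin C defined 100% inhibition.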
(In qHTS, concentration-response curves come from the screen itself.)

The mark [1] stands for this setting: measured here: cell number channel AC50, cells fed with added oleic acid.
[2] abbreviates: measured here: lipid fluorescence (Fed channel) AC50, cells fed with added oleic acid.

Some of the results follow. Further columns of the screen follow, without active or inactive calls. Most of these compounds were active or inconclusive in the main read-out, so they are no random draw. Potencies come from curve fits of mixed quality, noted in brackets.

In the case of `CCCCn1c(SCC(=O)Nc2cc(C)on2)nc2ccccc2c1=O`, the AC50 (in general, the concentration at which the activity in the assay is half-maximal) by setting is: under setting [1], 0.517 µM [rising, partial curve]; under setting [2], 0.411 µM [rising, full curve].
Consider `O=S(Cc1ccc(Br)cc1)Cc1nnc(SCc2c(F)cccc2Cl)n1-c1ccccc1` (stereo not given), for which the cell number change is 0.777%. Moreover, under setting [2], the AC50 is 2.06 µM [rising, single point].
On to `CN(c1ccc(O)cc1)c1nc(-c2ccccc2)cs1`, for which the cell number change is -62.2%. Further, under setting [1], the AC50 was 29.1 µM [falling, single point]. Further, under setting [2], the AC50 was 2.91 µM [falling, partial curve].
Regarding `O=C(Nc1nc2ccccc2c(=O)s1)c1ccc(F)cc1Cl`, the cell number change was found to be 2.84%.
As to `COc1ccc(-n2c(N)c(C(=O)NCc3cccnc3)sc2=S)cc1`, the AC50 was 0.731 µM [rising, full curve] under setting [1] and 3.26 µM [rising, partial curve] under setting [2].
For the compound `COc1ccc(/C=C(\NC(=O)/C=C/c2ccco2)C(=O)NCCc2nc3ccccc3[nH]2)cc1`, the cell number change was -21.1%. For the same compound, the AC50 under setting [1] was 3.66 µM [falling, single point]. Also, under setting [2], the concentration at half-maximal activity (AC50) was 29.1 µM [rising, single point].
For `CC1CCN(S(=O)(=O)c2cnc[nH]2)CC1`, the cell number change is 14.9%. Besides, the concentration at half-maximal activity (AC50) under setting [2] was 13 µM [rising, partial curve].
For the compound `Cc1cccc(OCCCSc2nc3ccc(C)cc3[nH]2)c1`, the cell number change is 53.6%. Moreover, under setting [1], the AC50 was 16.4 µM [rising, single point].
Consider `CCN1CCN(CCNC(=O)c2ccc(/C=C3\Sc4ccccc4N(Cc4ccccc4F)C3=O)cc2)CC1`, for which the cell number change was -37.1%. The AC50 under setting [1] was 0.517 µM [falling, full curve, poor fit]. The half-maximal activity concentration (AC50) under setting [2] was 29.1 µM [falling, single point].
As for `CC1(C)CC(NC(=O)c2ccc(Cl)cc2)CC(C)(C)N1`, the cell number change was 4.5%. Besides, the half-maximal activity concentration (AC50) under setting [2] is 6.51 µM [rising, single point].
As to `O=C(CSc1ccccc1)Nc1nnc(-c2ccco2)o1`, the cell number change was -52.4%. Besides, the AC50 under setting [1] is 13 µM [falling, partial curve]. Also, the AC50 under setting [2] was 20.6 µM [falling, partial curve].
On to `CCN(c1ccc(NC(=O)c2cccc(S(=O)(=O)N3CCN(C)CC3)c2)cc1)C(C)C`, for which the cell number change stood at 55.7%. The concentration at half-maximal activity (AC50) under setting [1] was 29.1 µM [rising, partial curve, poor fit].
In the case of `CCCc1c(NC(=O)Nc2ccc(F)cc2)cnn1-c1ccc(Cl)cc1`, the cell number change was 8.37%. Moreover, under setting [2], the AC50 was 0.259 µM [rising, full curve, poor fit].
As for `Clc1ccc(Oc2cccc(/C=N/n3cnnc3)c2)cc1`, the cell number change is -37.4%. Moreover, the concentration at half-maximal activity (AC50) under setting [1] was 29.1 µM [falling, single point]. Besides, the AC50 under setting [2] was 2.31 µM [rising, partial curve].
On to `COc1ccc(/C=N/NC(=O)CCC(=O)Nc2ccc(Br)cc2)c(OC)c1`, for which the cell number change is -65.2%. For the same compound, the AC50 under setting [1] is 29.1 µM [falling, single point]. The AC50 under setting [2] was 29.1 µM [falling, single point].
For `Cc1ccc(S(=O)(=O)N2CCCC2)s1`, the cell number change came out at 22.7%. Besides, the AC50 under setting [2] was 35.5 µM [rising, single point].
Consider `Cc1onc(-c2c(Cl)cccc2Cl)c1C(=O)NCc1cccs1`, for which the AC50 runs as follows: under setting [1], 6.51 µM [falling, single point]; under setting [2], 6.51 µM [falling, single point].
Regarding `COc1ccc(C(=O)c2coc(-c3ccccc3C(=O)O)c2C(=O)O)cc1`, the cell number change is -10.1%. Besides, the AC50 under setting [2] was 16.4 µM [falling, partial curve].
Turning to `CCOC(=O)c1sc(NC(=O)c2cc(-c3ccccc3)nc3ccccc23)c(C#N)c1C`, the cell number change was -4.02%. Further, the AC50 under setting [2] was 0.206 µM [falling, full curve, poor fit].
Turning to `O=C(NCc1nnc2n1CCCCC2)c1ccc(Cl)cc1Cl`, the cell number change worked out at 19.8%.
For the compound `CC(C)Oc1ccc(C(CC(=O)O)NC(=O)c2cccs2)cc1` (stereo not given), the cell number change is -26.7%. The concentration at half-maximal activity (AC50) under setting [1] was 3.66 µM [falling, full curve, poor fit]. The AC50 under setting [2] is 3.66 µM [falling, full curve].
Take `O=C1C=C(O)c2c(O)cccc2C1=O`: the cell number change worked out at 5.24%. Further, under setting [2], the AC50 was 6.51 µM [rising, single point].
Take `COCCOCCOCCC(=O)NC1CC2CCC1(C)C2(C)C` (stereo not given): the cell number change was 2.16%.
`COc1ccc(CNC(=O)[C@H](C)NC(=O)N2CCn3c2nc2ccccc23)cc1`: the cell number change stood at 38.3%. For the same compound, the concentration at half-maximal activity (AC50) under setting [1] is 29.1 µM [rising, single point].
In the case of `CCCCC/C(=N\NC(=O)Nc1ccccc1)c1ccccc1`, the cell number change is -11.1%. Moreover, the AC50 under setting [2] was 0.103 µM [falling, full curve, poor fit].
With `CC/C(C)=N\NC(=O)CNC(=O)c1ccc(Cl)cc1Cl`, the cell number change was determined as 7.27%.
In the case of `Cc1ccc2ccccc2c1COC(=O)c1nonc1N`, the cell number change was -43.2%. For the same compound, the AC50 under setting [1] is 18.4 µM [falling, single point].
Regarding `Cc1ccccc1-n1nc(C)c2cc(C(=O)N3CCN(S(=O)(=O)c4ccccc4)CC3)sc21`, the cell number change is -6.97%. Besides, the concentration at half-maximal activity (AC50) under setting [2] was 1.03 µM [rising, full curve].
Turning to `O=C(c1ccccc1)N(c1ccccc1)C1C=CS(=O)(=O)C1` (stereo not given), the cell number change was 16%. Under setting [1], the AC50 is 4.11 µM [falling, single point].
As for `Cc1cc(=O)oc(C)c1C(=O)N[C@@H](Cc1ccccc1)C(=O)O`, the cell number change worked out at 4.5%. For the same compound, the AC50 under setting [2] was 29.1 µM [rising, single point].
Regarding `Cc1cccc(CSCCNC(=O)CCSc2ccccc2)c1`, the cell number change was -30.5%. In addition, under setting [1], the AC50 is 29.1 µM [falling, single point]. In addition, the AC50 under setting [2] is 18.4 µM [falling, single point].
Consider `COc1cccc(CN(C)C(=O)c2ccc(COc3ccc(Cl)cc3)cc2)c1OC`, for which the cell number change stood at 14.3%. The concentration at half-maximal activity (AC50) under setting [2] is 29.1 µM [rising, single point].
In the case of `Cn1c(CSCc2ccc(Cl)cc2)n[nH]c1=S`, the concentration at half-maximal activity (AC50) under setting [2] was 29.1 µM [rising, single point].
On to `Cc1c(NC(=O)c2ccc(NC(=O)C3CC3)cc2)cccc1C(=O)O`, for which the cell number change was 26.4%. Moreover, the half-maximal activity concentration (AC50) under setting [2] is 12.6 µM [rising, partial curve].
`CC1(C)CC(=O)N(CC(=O)O)c2ccccc2S1(=O)=O`: the cell number change amounted to 4.82%. Also, the half-maximal activity concentration (AC50) under setting [1] was 0.13 µM [falling, full curve, poor fit].
On to `CC(=O)c1ccc(N2CCN(S(=O)(=O)c3ccc4c5c3CC(=O)N5CC(C)S4)CC2)cc1` (stereo not given), for which the cell number change is -2.75%.
Same read-out and setting: for `C=CCNC(=O)c1cc(-c2ccc3c(c2)OCO3)on1` the value was 14.9%.
For the compound `CCCn1c2ccccc2c2nnc(SCc3[nH]c(=O)[nH]c3C(=O)CCCCC(=O)OCC)nc21`, the cell number change is -44%. Under setting [1], the AC50 was 23.1 µM [falling, single point].
For the compound `Cc1ccc(C(C)C)cc1OCCN1CCCC1`, the cell number change was 33.3%. The AC50 under setting [1] was 0.116 µM [rising, full curve, poor fit].
For `Cc1ccccc1/C=N/Nc1ccnc2cc(Cl)ccc12`, the cell number change was -84.5%. For the same compound, under setting [1], the AC50 is 29.1 µM [falling, single point]. Under setting [2], the concentration at half-maximal activity (AC50) was 1.3 µM [rising, partial curve].
As for `Brc1cc2[nH]cnc2c2ccccc12`, under setting [1], the AC50 was 2.91 µM [rising, partial curve].
As for `N#Cc1cccc(S(=O)(=O)NCC(=O)NCCCc2ccccc2)c1`, the cell number change came out at 12.2%. Moreover, under setting [2], the AC50 was 8.2 µM [rising, partial curve, poor fit].
As for `CN1CCc2nc(SC(C(=O)O)c3ccccc3)c(C#N)c(-c3cccs3)c2C1` (stereo not given), the cell number change was found to be 7.67%. Also, under setting [2], the concentration at half-maximal activity (AC50) was 5.17 µM [falling, partial curve].
`Cc1cc(Cl)nc2c(C(C)C)cccc12`: the cell number change is -45.1%. Further, the concentration at half-maximal activity (AC50) under setting [1] is 3.26 µM [falling, partial curve, poor fit].
For the compound `CCN(CC)S(=O)(=O)c1ccc(N2CCOCC2)c(NC(=O)c2cc(=O)[nH]c3ccccc23)c1`, the AC50 under setting [2] was 0.58 µM [rising, single point].
Take `Cc1ccccc1OCC(=O)Nc1ccc2c(c1)C(=O)N(CCC(=O)O)C2=O`: the cell number change came out at 9.09%. Under setting [2], the concentration at half-maximal activity (AC50) is 0.0731 µM [rising, full curve, poor fit].
For the compound `O=C1Nc2ccccc2/C1=C/c1cnc(-c2ccccc2)[nH]1`, the cell number change was 16.3%. Also, under setting [2], the half-maximal activity concentration (AC50) is 29.1 µM [falling, single point].
`COc1ccc(N2CC(C(=O)NC3CCSC3=O)CC2=O)cc1` (stereo not given): the cell number change came out at 7.89%. Also, under setting [1], the AC50 was 3.66 µM [falling, single point].
Take `Cc1[nH]c2ccccc2c1C(=O)CSC(=S)N(C)C1CCCCC1`: the cell number change was -0.884%.
For `COc1ccc(C(=O)NNC(=O)C(=O)N2CCCCC2)cc1OC`, the cell number change is -2.35%. The AC50 under setting [2] is 25.9 µM [rising, single point].
For the compound `CCOc1ccc(Nc2nc(N3CCCCC3)nc(N3CCCCC3)n2)cc1`, the cell number change is -10.9%.
For `N/C(=N\OC(=O)Oc1ccccc1)c1ccc(Br)cc1`, the cell number change worked out at 41.2%. Further, the AC50 under setting [1] is 18.4 µM [rising, single point]. Besides, the half-maximal activity concentration (AC50) under setting [2] was 0.731 µM [falling, single point].
Consider `CCOc1ccccc1NC(=O)c1ccc(S(=O)(=O)N(C)c2ccccc2)cc1`, for which the cell number change was 16.3%. Besides, under setting [2], the concentration at half-maximal activity (AC50) was 29.1 µM [rising, single point].
As to `O=C1CCC(=O)N1c1ccc(S(=O)(=O)Nc2cccc(Br)c2)cc1`, the cell number change was 43.6%. Further, under setting [1], the AC50 is 29.1 µM [rising, single point].
For `COc1ccccc1CNC(=O)[C@H](C)NC(=O)C1CCN(C(=O)[C@@H](N)Cc2ccccc2)CC1`, the cell number change is 23%. The AC50 under setting [2] is 20.6 µM [rising, partial curve].
On to `CCOC(=O)C1CCN(C(=O)c2ccccc2N(C)S(C)(=O)=O)CC1`, for which the cell number change is -2.03%. Moreover, the concentration at half-maximal activity (AC50) under setting [2] was 29.1 µM [falling, single point].
`O=C1C=C(c2ccc(-c3ccccc3)cc2)C[C@@H](c2ccc(Cl)cc2)C1`: the cell number change is -3.38%. Further, the concentration at half-maximal activity (AC50) under setting [1] was 0.146 µM [falling, full curve, poor fit]. Further, the AC50 under setting [2] was 0.164 µM [falling, full curve, poor fit].
For `CN(C(=O)c1cc(COc2ccc(F)c(F)c2)on1)C1CCOC1` (stereo not given), the cell number change is -28.1%. The concentration at half-maximal activity (AC50) under setting [2] was 6.51 µM [rising, single point].
For `Cc1ccc(Sc2oc(/C=N/n3cnnc3)cc2Br)cc1`, the cell number change was found to be 1.55%. The AC50 under setting [2] was 0.0058 µM [rising, full curve, poor fit].
Regarding `CCN1CCc2c(sc(NC(=O)C3CCCCC3)c2C(=O)OC)C1`, the cell number change is -18.4%. Besides, the AC50 under setting [2] was 6.51 µM [rising, single point].

Values taken from PubChem BioAssay AID2685 (National Center for Advancing Translational Sciences (NCATS), 2010).
